{"source": "patent US20240238237A1", "about": "“CONJUGATED LINOLEIC ACID SUPPLEMENTATION FOR DISEASE TREATMENT” (VIRGINIA TECH INTELLECTUAL PROPERTIES, INC., priority 2021, published 2024)", "key": {"[1]": {"system": "WT, PWS (Snord116m+/p−) and PWS-KO (Snord116m−/p−) mice", "experiment": "Indirect calorimetry and home-cage activity (TSE system)", "type": "in vivo, mouse", "method": "Indirect calorimetry and locomotor activity measurements were performed using a Labmaster Mouse calorimetry and Locomotor system (TSE Systems, Bad Homburg, Germany) in the Metabolism Core Virginia Tech. VO2 consumption and VCO2 production in individual mice were measured using metabolic chambers. Air going into the TSE system was at 20.9% oxygen, 0.05% CO2, and the airflow rate was 0.4 L/min (Airgas, Christiansburg, VA, USA). Data were collected every 15 min. Body composition was measured, as described above, prior to assessment of the animals using the TSE system. A photobeam-based ac-tivity monitoring system detected and recorded ambulatory movements. The results were used to calculate the respiratory exchange ratio (RER) and total energy expenditure/gram lean mass. Energy expenditure (KJ/h) was calculated using the formula VO2×(3.815+(1.232×RER))×4.1868 and normalized to the lean mass determined by NMR. All parameters were measured continuously and simultaneously for 48 h after approximately 20 h of adaptation for single-housed mice. The average values for the last 24-48 h were used for analysis. To calculate hourly activity, the average of two-hour bins of activity from the last 24 h period was plotted. […]"}, "[2]": {"system": "WT, PWS (Snord116m+/p−) and PWS-KO (Snord116m−/p−) mice", "experiment": "Weekly body weight, fat and lean mass (NMR), rectal temperature and food intake, Example 1", "type": "in vivo, mouse", "method": "All animal protocols were approved by the Institutional Animal Care and Use Commit-tee at Virginia Tech. Mice with the Snord116 paternal deletion (B6[Cg]-Snord116tm1.1Uta/J Stock No: 008149|1-loxp (KO), Snord116del) were obtained from Jackson Laboratories and maintained on a C57Bl/6 background. Genotyping and breeding were performed as reported. WT mice for the study were siblings of either the PWS (Snord116m+/p−) or PWS-KO (Snord116m−/p−) mice. PWS mice were generated by crossing WT females and male mice who were Snord116m−/p+. Breeder males (Snord116m−/p+) were generated in separate crosses to inherited their deleted allele from a maternal chromosome so that they were considered phenotypically normal in regards to Snord116 expression. PWS-KO (Snord116m−/p−) mice were generated by using non-sibling male and female mice of the genotype Snord116m−/p+ who had inherited their deleted allele maternally. In this type of mating, 50% of the offspring would be heterozygous (and never used for mating or the study, as the origin of their deleted allele could not be determined), and 25% each would have WT alleles or would be PWS-KO. Mice were housed at room temperature at about 22° C. with 12 h light/dark cycles at 7 a.m. and 7 p.m. and ad-libitum access to food (4.5% crude fat) and water. Mice were weaned at 3 weeks old, genotyped using an ear snip, […]. ear tagged, and housed with littermates of the same sex. For tissue dissection, mice were euthanized by CO2 asphyxiation between 12 p.m. and 2 p.m.\nBody weight, fat, and lean mass, rectal temperature, and food intake were measured weekly. For body weight, fat, and lean mass measurements, mice were weighed on Mondays using a standard scale, and then placed in a Bruker (Billrica, MA, USA) LF90 NMR machine using the mouse holder. Measurements were recorded in grams for fat and lean mass.\nAll values were expressed as mean+SEM unless indicated otherwise. […] For the responses of weight, fat, lean mass, temperature, and food intake shown in figures, a fitted least squares regression with effects of genotype, treatment, and genotype×treatment was analyzed for Week 12 data only. Responses of these dependent variables were also analyzed across the 12-week time period, adding in effects of week, week×treatment, and week×genotype. […] The responses that had pre-post measures (wheel running, elevated plus, fasting glucose, glucose tolerance) were analyzed separately for the pre and post time periods (no effect of time). […] Rotarod data were collected only during the post-period and analyzed with a response of time and effects of genotype, treatment, and genotype×treatment. […]"}}, "note": "“Also recorded” adds a separate entry of the source."}
{"substance": "conjugated linoleic acid [CLA]", "values": [{"measurement": "Respiratory exchange ratio (VCO2/VO2)", "setting": "[1]; Week 12, N 4-7 per group", "value": "no significant effects"}, {"measurement": "Energy expenditure per fat-free mass", "setting": "[1]; Week 12, all genotypes with CLA diet", "value": "slight but non-significant increases"}, {"measurement": "Food intake, effect of CLA diet", "setting": "[2]; all genotypes, entire study", "value": "significantly increased food intake"}, {"measurement": "Food intake", "setting": "[2]; all genotypes, entire study, CLA diet (control diet 16.48 g)", "value": 17.18, "unit": "g"}, {"measurement": "Food intake at Week 12, between treatments", "setting": "[2]; end of study (Week 12)", "value": "no overall significant difference"}, {"measurement": "Body temperature, effect of treatment", "setting": "[2]; whole study, all genotypes", "value": "significant effect of treatment; also recorded: dropped significantly"}]}
